Source: ChEMBL document CHEMBL3988442, “University of Dundee, Small-Polar-MMV Screening Library” (2021).

The chains behind the UniProt entries cited, without tags or fusion partners. Residues count along the entry.
UniProt A4I591, 1-473: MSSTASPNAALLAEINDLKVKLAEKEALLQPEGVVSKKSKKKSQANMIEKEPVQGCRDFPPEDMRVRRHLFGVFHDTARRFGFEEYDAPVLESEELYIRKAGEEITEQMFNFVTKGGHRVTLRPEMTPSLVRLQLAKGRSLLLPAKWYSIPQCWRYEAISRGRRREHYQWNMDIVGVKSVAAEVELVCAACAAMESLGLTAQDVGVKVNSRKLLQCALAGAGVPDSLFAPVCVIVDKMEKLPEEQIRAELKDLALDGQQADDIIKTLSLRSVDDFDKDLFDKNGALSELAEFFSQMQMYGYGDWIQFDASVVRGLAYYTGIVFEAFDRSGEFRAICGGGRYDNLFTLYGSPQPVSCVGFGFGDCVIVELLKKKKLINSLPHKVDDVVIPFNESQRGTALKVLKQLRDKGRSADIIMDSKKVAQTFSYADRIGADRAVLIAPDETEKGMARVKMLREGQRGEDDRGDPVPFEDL
UniProt I6X8D2, whole entry: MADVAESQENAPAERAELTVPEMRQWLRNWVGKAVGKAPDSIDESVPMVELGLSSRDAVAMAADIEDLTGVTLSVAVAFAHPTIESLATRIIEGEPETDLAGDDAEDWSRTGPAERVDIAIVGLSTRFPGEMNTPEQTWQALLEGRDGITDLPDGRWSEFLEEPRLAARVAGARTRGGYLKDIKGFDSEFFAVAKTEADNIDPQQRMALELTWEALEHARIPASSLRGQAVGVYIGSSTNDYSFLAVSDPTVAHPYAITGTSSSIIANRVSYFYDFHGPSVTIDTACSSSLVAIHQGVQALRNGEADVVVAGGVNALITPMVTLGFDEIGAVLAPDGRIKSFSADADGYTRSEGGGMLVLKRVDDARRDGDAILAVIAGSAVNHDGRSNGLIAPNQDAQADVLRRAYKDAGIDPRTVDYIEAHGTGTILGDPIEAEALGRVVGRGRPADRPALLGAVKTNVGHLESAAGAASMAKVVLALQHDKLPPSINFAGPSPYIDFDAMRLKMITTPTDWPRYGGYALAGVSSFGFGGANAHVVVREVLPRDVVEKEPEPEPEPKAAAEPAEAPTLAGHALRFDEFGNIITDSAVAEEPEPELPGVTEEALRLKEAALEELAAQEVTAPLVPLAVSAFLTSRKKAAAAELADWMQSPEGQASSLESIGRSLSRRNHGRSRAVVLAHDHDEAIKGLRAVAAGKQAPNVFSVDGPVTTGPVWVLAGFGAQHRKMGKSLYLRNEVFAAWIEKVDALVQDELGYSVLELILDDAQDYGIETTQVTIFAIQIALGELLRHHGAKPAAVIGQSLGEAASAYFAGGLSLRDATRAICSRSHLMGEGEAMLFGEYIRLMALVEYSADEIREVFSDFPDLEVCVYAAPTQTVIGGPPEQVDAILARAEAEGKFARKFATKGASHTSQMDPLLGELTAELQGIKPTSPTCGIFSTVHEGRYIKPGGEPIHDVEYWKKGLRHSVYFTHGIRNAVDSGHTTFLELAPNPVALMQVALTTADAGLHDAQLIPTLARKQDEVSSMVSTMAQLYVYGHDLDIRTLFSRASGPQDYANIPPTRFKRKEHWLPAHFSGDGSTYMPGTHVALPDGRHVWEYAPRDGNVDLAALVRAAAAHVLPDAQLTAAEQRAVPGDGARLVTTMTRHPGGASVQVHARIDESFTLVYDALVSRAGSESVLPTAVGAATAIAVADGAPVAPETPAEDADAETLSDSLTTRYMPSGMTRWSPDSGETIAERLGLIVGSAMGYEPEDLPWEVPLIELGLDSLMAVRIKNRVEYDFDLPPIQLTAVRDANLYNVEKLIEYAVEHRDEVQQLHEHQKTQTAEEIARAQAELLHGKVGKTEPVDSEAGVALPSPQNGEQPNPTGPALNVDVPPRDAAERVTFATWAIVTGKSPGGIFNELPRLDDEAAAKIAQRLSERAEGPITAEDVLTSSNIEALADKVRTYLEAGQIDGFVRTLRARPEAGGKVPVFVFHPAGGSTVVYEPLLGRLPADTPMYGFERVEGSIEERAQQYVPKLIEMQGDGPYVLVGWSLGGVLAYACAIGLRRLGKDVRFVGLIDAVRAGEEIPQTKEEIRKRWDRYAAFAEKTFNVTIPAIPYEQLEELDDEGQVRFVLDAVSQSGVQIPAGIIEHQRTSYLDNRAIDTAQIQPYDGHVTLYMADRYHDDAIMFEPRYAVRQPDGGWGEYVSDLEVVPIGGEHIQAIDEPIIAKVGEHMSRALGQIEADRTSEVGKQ

LiHisRS: 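Enzyme assay of histidyl-tRNA synthetase; the read-out is not stated. Target: Histidine-tRNA ligase, Leishmania infantum (UniProt A4I591). Tested at 30 µM. The record gives no direction; compounds that gave an IC50 in retests scored well above the rest, so higher reads as stronger inhibition. The assay is labelled LdHisRS but filed under L. infantum. About 69,000 compounds were tested under these conditions; 0.6% (about 410) showed 50% or more at least once.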
Pks13 thioesterase: 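Enzyme assay of the thioesterase domain of polyketide synthase 13; the read-out is not stated. Target: Polyketide synthase Pks13, Mycobacterium tuberculosis (UniProt I6X8D2). Tested at 30 µM. The record gives no direction; the compounds picked for IC50 retests had high values, so higher reads as stronger inhibition. About 67,000 compounds were tested under these conditions; 0.46% (about 300) showed 50% or more at least once.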
Leishmania in macrophages: 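Cell assay of Leishmania donovani living inside macrophages; the read-out is not stated. Compounds at 30 µM. Higher reads as stronger inhibition (inferred: compounds with an IC50 in retests scored well above the rest). Of about 69,000 compounds tested this way, about 1,000 (1.5%) reached 50% or more in at least one test.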

Each number is a percent effect as filed. The record does not define 0% and 100%; most values in the screen are far below 50% and negative numbers occur (in some assays of this library far below -100). This is an unselected part of the compounds tested. Two or more numbers in one place are separate tests of the same structure; such repeats can differ widely. A dash means the value is not listed here; it may have been measured.

| compound | LiHisRS | Pks13 thioesterase | Leishmania in macrophages |
|---|---|---|---|
| `O=C(c1cocn1)N1C[C@@H]2CN(Cc3ccco3)CCO[C@@H]2C1` | 12.61% | 29.45% | - |
| `CSc1[nH]c(=O)c(C(=O)N2CCCC2c2cccs2)cc1C#N` (centres unmarked) | 16.67% | 10.03% | -1.717% |
| `CN(C)CCN(Cc1ccc(Cl)cc1)C(=O)c1ccncc1` | 28.77% | -26.39% | 19.45% |
| `Cc1cccc(CN2C(=O)CO[C@@H]3CN(C4CCOCC4)C[C@H]32)c1` | 20.21% | -1.115% | - |
| `c1ccc(COc2cccc(CNC3CCc4ncnn4C3)c2)cc1` (centres unmarked) | 12.04% | - | -0.9201% |
| `Cc1nc(NCC2CC2)nc2c1COCC21CCN(CC(=O)N(C)C)C1` (centres unmarked) | 18% | -1.977% | 39.12% |
| `CC(C)c1nc(C2CCCN(C(=O)Cc3cccnc3)C2)no1` (centres unmarked) | 14.29% | -5.962% | -2.399% |
| `COc1ccc(Nc2nc(N)c(C(C)=O)s2)cc1OC` | 31.58% | 6.371% | 25.83% & 18.35% |
| `COC[C@]1(O)CCN(Cc2ccc(N(C)C)nc2)CC1(C)C` | 15.66% | -17.3% | -10.49% |
| `Cc1nn(C)c(C)c1-c1nc2cc(S(=O)(=O)N3CCCC3)ccc2n1C` | 6.024% | -4.699% | 14.47% |
| `[H][C@]12CCN(C(=O)c3cccc(C)c3)C[C@@]1([H])OCCN(c1ncccn1)C2` | - | - | 24.17% |
| `N#Cc1cccc(NC2CC(=O)N(C3Cc4ccccc4C3)C2)n1` (centres unmarked) | 6.383% | -20.11% | 4.542% |
| `COc1cccc(NC(=O)NC(C)c2ccc3c(c2)CC(=O)N3)c1` (centres unmarked) | 0% | -42.72% | 12.64% |
| `O=C(Nc1cccnc1)c1ccc(-n2cncn2)nn1` | 8.696% | -1.825% | -46.43% & 8.745% |
| `COCCCN1CCC(NC(=O)C(C)C)CC1` | 1.905% | -12.54% | -3.907% |
| `CCC(NC(=O)C1CCN(S(C)(=O)=O)CC1)c1ccc(OC)cc1` (centres unmarked) | -1.176% | -10.02% | -11.21% |
| `O=c1cc(CN2CCCC2)nc2n1CCCN(CC1CC1)C2` | 11.88% | -22.92% | 30.63% |
| `O=C1COC2(COCCN(Cc3cccnc3)C2)CN1c1ccoc1` (centres unmarked) | 16.5% | -2.259% | - |
| `CCC(CO)NCc1ccc(-c2ccccc2)o1.Cl` (centres unmarked) | - | - | 7.098% |
| `COCC1CC2(CCN(Cc3ccccn3)CC2)CN1c1ncccn1` (centres unmarked) | 25.71% | -0.8846% | - |
| `Cc1ccccc1OCC(O)CN1CCC(c2ccn[nH]2)CC1` (centres unmarked) | 1.695% | -4.79% | 17.9% |
| `Cc1cnc(NCC(C)(C)N2CCN(C)CC2)nc1` | 8% | -2.944% | 25.62% |
| `Cc1ccc(C(CNCc2ccc(C#N)cc2)N2CCOCC2)s1` (centres unmarked) | 16.96% | -18.25% | 16.57% |
| `Cc1noc(C)c1CSc1nc(=O)ccn1C(C)C` | 15.05% | -28.56% | -21.27% |
| `COc1ccc2c(c1)CC(NCc1cccc(OCC(N)=O)c1)CC2` (centres unmarked) | 58.97% | -16.97% | -26.93% |
| `Cc1ccc(C(=O)NCC2CCN(C)c3ccccc32)c(=O)[nH]1` (centres unmarked) | 17.24% | -31.48% | 28.06% |
| `O=C(c1cc[nH]n1)N1CCC(c2nccn2Cc2ccncc2)CC1` | 7.2% | 1.94% | 11.18% |
| `Cn1ncc2c(NCCC34CCCN3CCC4)nc(C3CCCC3)nc21` | 21.15% | -10.67% | 34.19% |
| `CCn1ncc(CN2CCCC(n3c(=O)oc4ccccc43)C2)c1C` (centres unmarked) | 10.14% | 7.327% | - |
| `COCC(=O)N1CCCN(Cc2c(C)nc3ccc(Cl)cn23)CC1` | 25.33% | -9.954% | 31.2% |
| `N#CCCN(C(=O)CN1CCCC1Cc1ccccc1)c1ccccc1` (centres unmarked) | 25% | -16.91% | 11.02% |
| `CCn1c(-c2ccccc2)nn(CC(=O)NCCc2c[nH]cn2)c1=O` | 6.195% | -6.488% | 22.36% |
| `Cc1ccc(F)cc1-n1c(CN(C)S(C)(=O)=O)n[nH]c1=O` | 16.78% | -12.45% | 10.53% |
| `Cc1c(CN2CCc3[nH]cnc3C2C(=O)O)[nH]c2ccc(F)cc12` (centres unmarked) | 26.67% | -11.95% | 8.645% |
| `O=C(O)C(F)(F)F.c1csc(CN2CCn3c(Cn4cncn4)cnc3C2)c1` | - | - | 30.25% |
| `CC1Cc2cc(-c3cncn3CC(=O)NC(C)(C)C)ccc2N1C` (centres unmarked) | 31.03% | -2.99% | - |
| `CS(=O)(=O)N1CCC(C(=O)N2CCC(Cn3cccn3)CC2)CC1` | 9.402% | 7.135% | 0.3849% |
| `O=C(c1ccco1)N1CCC(n2nc(-c3ccco3)ccc2=O)CC1` | 9.375% | 10.8% | 11.28% |
| `COc1ccc2cccc(CC(=O)NCCCc3n[nH]c(C)n3)c2c1` | 2.5% | 9.317% | -9.351% |
| `COc1cccc(CN(C)Cc2ccc(C#N)cc2)c1OC` | 5.769% | 5.508% | 23.1% |
| `c1cnc(NCc2ncn3c2CN(Cc2cccnc2)CCC3)nc1` | 13.46% | 0.3889% | - |
| `CCCn1nc2c(cc1=O)CN(Cc1nc(C)c(C)o1)CC2` | 13.16% | -2.821% | 0.3456% |
| `COC(=O)N1CCC(Nc2ccc(C#N)c(Cl)c2)C1` (centres unmarked) | 23.89% | -3.534% | 18.42% |
| `CCC(C(=O)NCc1csc(N2CCOCC2)n1)n1cccn1` (centres unmarked) | 25.71% | -29.03% | 21.04% |
| `Cc1ccccc1CSc1nc(=O)n(CCO)c2c1CCC2` | 11.57% | -11.17% | 10.91% |
| `Cc1nccn1-c1cccc(C2CCCN2S(=O)(=O)c2cn(C)cn2)n1` (centres unmarked) | 0% | -0.3529% | -24.88% |
| `O=C(Nc1ccc2c(c1)OCO2)c1ccc(N2CCCC2)nn1` | 12.82% | 13.86% | 2.88% & 11.51% |
| `O=S(=O)(c1ccc(N2CCCCC2)c2nonc12)N1CCCCC1` | 25% | 29.31% | -72.9% |
| `CC(=O)N1CCN(C2CCc3ccccc32)CC1` (centres unmarked) | 7.692% | -24.23% | 13.94% |
| `Cc1nc(CN2Cc3nccn3CC(COCC3CC3)C2)cs1` (centres unmarked) | 16.22% | 15.39% | - |
| `Cc1cccc(CN2CCN(Cc3ccccc3)CC(O)C2)n1` (centres unmarked) | 21.15% | -20.01% | 34% |

For reference, 5 entries once more:

- Cc1ccc(C(CNCc2ccc(C#N)cc2)N2CCOCC2)s1 (centres unmarked) : LiHisRS: 16.96%; Pks13 thioesterase: -18.25%; Leishmania in macrophages: 16.57%
- Cc1nccn1-c1cccc(C2CCCN2S(=O)(=O)c2cn(C)cn2)n1 (centres unmarked) : LiHisRS: 0%; Pks13 thioesterase: -0.3529%; Leishmania in macrophages: -24.88%
- CCn1c(-c2ccccc2)nn(CC(=O)NCCc2c[nH]cn2)c1=O : LiHisRS: 6.195%; Pks13 thioesterase: -6.488%; Leishmania in macrophages: 22.36%
- COC[C@]1(O)CCN(Cc2ccc(N(C)C)nc2)CC1(C)C : LiHisRS: 15.66%; Pks13 thioesterase: -17.3%; Leishmania in macrophages: -10.49%
- Cc1c(CN2CCc3[nH]cnc3C2C(=O)O)[nH]c2ccc(F)cc12 (centres unmarked) : LiHisRS: 26.67%; Pks13 thioesterase: -11.95%; Leishmania in macrophages: 8.645%